Measured values published in PubChem BioAssay AID2685 (National Center for Advancing Translational Sciences (NCATS), 2010).
The other results are listed elsewhere or left out. These are further read-outs of the screen, such as a control signal, another cell line or another target. No call is given for them. Compounds called inactive in the main read-out are mostly missing here. Potencies come from curve fits of mixed quality, noted in brackets.

Assay: qHTS Assay for Lipid Storage Modulators in Drosophila S3 Cells;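 for cell number change: cells counted by Cell Tracker Red CMTPX staining in the red channel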
Conditions: BODIPY lipid droplet fluorescence, 18-24 h; for cell number change: measured here: cell count max response, cells fed with added oleic acid
Procedure, shortened: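 Drosophila S3 cells loaded with oleic acid (400 uM, as added) and compounds at several concentrations; lipid droplets imaged by 488-nm laser-scanning cytometry, 500–530 nm intensity and object ratio to cell channel. Percent activity normalized to 20 uM Triacsin C.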

[1] = measured here: cell number channel AC50, cells fed with added oleic acid
[2] = measured here: lipid fluorescence (Fed channel) AC50, cells fed with added oleic acid

| SMILES | cell number change | AC50 [1] | AC50 [2] |
| --- | --- | --- | --- |
| O=C(NCCc1ccccc1)c1cnc2ccccc2n1 | 24.3% | 0.291 µM [rising, full curve, poor fit] |  |
| O=C(CS(=O)(=O)c1ccc(Cl)cc1)NCc1ccccc1 | 15.5% |  | 16.4 µM [rising, partial curve] |
| Cc1[nH]nc(S(=O)CC(=O)O)c1[N+](=O)[O-] (stereo not drawn) | 22.4% | 2.06 µM [rising, full curve, poor fit] | 2.59 µM [rising, full curve] |
| COC(=O)Cc1ccc(NC(=S)N2CCN(c3cccc(O)c3)CC2)cc1 | -4.26% |  | 20.6 µM [falling, single point] |
| O=C(NN1C(=O)C2C3C=CC(C4CC34)C2C1=O)c1cccc(Cl)c1 (stereo not drawn) | 11.1% |  | 18.4 µM [rising, single point] |
| OCCCN1CCN(CCOc2ccccc2-c2ccccc2)CC1 | -5.68% |  | 0.58 µM [rising, single point] |
| CCCCc1cc(=O)oc2cc(OCC(=O)NCCN3CCOCC3)ccc12 | -10.1% |  | 6.51 µM [rising, single point] |
| O=C(Nc1nccs1)c1ccc(-c2ccc(Cl)cc2)o1 | -28.6% |  | 16.4 µM [falling, single point] |
| CNC(=O)C1=C(C)Nc2nc3ccccc3n2C1c1cccc(OC)c1 (stereo not drawn) | -30.8% | 16.4 µM [falling, single point] |  |
| CCCCCN(C(=O)CCC(=O)OCc1cccc(Cl)c1)c1c(N)n(CCCC)c(=O)[nH]c1=O |  | 2.91 µM [rising, partial curve, poor fit] |  |
| O=C(CN1CCN(S(=O)(=O)c2ccc(Br)cc2)CC1)Nc1ccccc1F | -11.3% |  | 3.66 µM [rising, single point] |
| CC(C)c1ccc(C(=O)NNC(=O)c2ccncc2)cc1 | 7.56% |  | 29.1 µM [rising, single point] |
| COc1ccccc1NC(=O)N1CCCC1C(=O)NCc1ccccc1Cl (stereo not drawn) | -34.6% | 16.4 µM [falling, single point] | 20.6 µM [falling, single point] |
| CCn1c(=O)cc(C(F)(F)F)[nH]c1=S | 11.5% |  |  |
| O=C1c2ccccc2NC(c2ccc([N+](=O)[O-])cc2)N1O (stereo not drawn) |  |  | 6.51 µM [falling, partial curve] |
| COc1cc(C)nc(Oc2ccc(=O)[nH]n2)n1 | -3.25% |  | 6.51 µM [falling, partial curve, poor fit] |
| CCCn1c(=O)[nH]c(=O)c2c1nc(-c1ccc3c(c1)OCCO3)n2CCN1CCOCC1 | 13.6% | 0.651 µM [falling, single point] | 29.1 µM [rising, single point] |
| O=C(c1ccc(Cl)c(S(=O)(=O)N2CCCCCC2)c1)N1CCN(c2ccc(O)cc2)CC1 | -12.5% |  | 29.1 µM [falling, single point] |
| CCCCOC(=O)CSc1nnc(-c2ccc(Cl)cc2Cl)o1 | 22.3% |  |  |
| COc1ccccc1C(=O)NNC(=O)c1ccc(C)cc1 | 3.67% |  | 16.4 µM [rising, single point] |

| SMILES | cell number change | AC50 [1] | AC50 [2] |
| --- | --- | --- | --- |
| O=C(Nc1ccc2[nH]ncc2c1)c1ccccc1 | 5.26% |  |  |
| Cc1c(NC(=O)C(C)OC(=O)/C=C/c2ccccc2)c(=O)n(-c2ccccc2)n1C (stereo not drawn) |  | 6.51 µM [rising, single point] | 5.8 µM [rising, single point] |
| O=C(NNC(=O)c1cc(-c2ccccc2)nc2ccccc12)Nc1cccc(Cl)c1 | -31.5% | 16.4 µM [falling, single point] | 2.59 µM [rising, partial curve] |
| O=C1CC(N2CCN(c3ncccn3)CC2)C(=O)N1CCc1ccccc1 (stereo not drawn) | -16.2% | 6.51 µM [falling, single point] | 6.51 µM [falling, single point] |
| COc1cc(-c2nc3ccccn3c2NCc2ccccc2)ccc1SC1CCCCC1 | -65.7% | 20.6 µM [falling, partial curve] |  |
| CCCCOC(=O)Nc1cccc(Cl)c1C | 14.3% |  |  |
| Cc1ccc(NC(=O)COC(=O)CCc2nc3ccccc3n2-c2ccccc2)c(C)c1 | 15.7% |  | 0.517 µM [rising, single point] |
| CC(CNS(=O)(=O)c1ccccc1)Sc1nncn1C (stereo not drawn) | 32.6% |  | 0.00731 µM [falling, full curve, poor fit] |
| CSC1=C(C#N)C(CC(C)C)C2=C(CCCC2=O)N1 (stereo not drawn) | 1.29% |  | 0.116 µM [falling, full curve, poor fit] |
| Cc1cc(C)c(S(=O)(=O)N2CCCOC2CNC(=O)C(=O)NCc2ccco2)c(C)c1 (stereo not drawn) | -12.9% | 0.0058 µM [rising, full curve, poor fit] |  |
| Cc1cc(=O)[nH]c(SCC(=O)Nc2nnc(CC(C)C)s2)n1 | 4.01% |  | 14.6 µM [rising, partial curve] |
| O=C(CCc1c[nH]c2ccccc12)NCc1ccc2c(c1)OCO2 | -14.2% |  | 20.6 µM [rising, partial curve, poor fit] |
| Cc1ccc(S(=O)(=O)NCCC(=O)Nc2nnc(C)s2)cc1 | 16.2% |  | 20.6 µM [rising, single point] |
| Cc1ccccc1NC(=O)C1CCN(S(=O)(=O)c2cccs2)CC1 | -3.01% | 0.0366 µM [rising, partial curve, poor fit] | 0.00461 µM [rising, full curve, poor fit] |
| COC(=O)c1cc(Cl)c(NC(=O)/C=C/c2ccc(OC)cc2)cc1OC | -12.2% | 5.17 µM [rising, single point] |  |
| O=C(N/N=C/c1ccc(Cl)cc1)c1cc2c(s1)-c1ccccc1CC2 | 35.5% | 0.731 µM [rising, partial curve] |  |
| CC1CCC(NS(=O)(=O)c2ccc3c(c2)CC(=O)N3)CC1 (stereo not drawn) | -7.37% |  | 23.1 µM [rising, single point] |
| CC(=O)NNc1ncnc2c1cnn2-c1ccc(C)c(Cl)c1 | -12.8% | 0.103 µM [falling, full curve, poor fit] |  |
| COC(=O)CC/C(C)=N\Nc1ccc([N+](=O)[O-])cc1[N+](=O)[O-] | -28.3% |  | 6.51 µM [falling, single point] |
| COC(=O)c1cc(S(=O)(=O)Nc2ccc(C)c(F)c2)c[nH]1 | -0.599% |  | 0.58 µM [falling, full curve, poor fit] |

| SMILES | cell number change | AC50 [1] | AC50 [2] |
| --- | --- | --- | --- |
| CCOc1ccc(Nc2oc(-c3ccccc3Cl)nc2C#N)cc1 | 14.5% |  | 8.2 µM [rising, partial curve] |
| CCCOc1ccc(CNC(=O)C2CCN(c3nnc(N4CCCC4=O)s3)CC2)cc1 | 13.3% |  | 3.26 µM [rising, partial curve] |
| O=C(c1ccc2c(c1)OCCO2)N1CCCCC1 | -193% | 20.6 µM [falling, partial curve] |  |
| COc1cccc(-c2cc3c(=O)n(-c4ccccc4)c(=S)[nH]c3s2)c1 | -20.8% |  | 0.291 µM [falling, full curve, poor fit] |
| Cc1ccc(S(=O)(=O)Nc2ccc3oc(=O)sc3c2)c(C)c1 | -115% |  | 23.1 µM [falling, single point] |
| COc1ccc(NC(=O)c2ccc([N+](=O)[O-])s2)c([N+](=O)[O-])c1 | -45.6% | 1.84 µM [falling, full curve] | 0.146 µM [falling, full curve, poor fit] |
| CCN(Cc1ccccc1)c1c(C(=O)O)cnc2c1cnn2C | 6.19% |  | 1.16 µM [rising, single point] |
| CCOC(=O)C1CCN(C(=O)CCc2nc3ccccc3[nH]2)CC1 | 139% | 20.6 µM [rising, single point] | 7.31 µM [rising, partial curve] |
| O=S(=O)(c1cccc(S(=O)(=O)N2CCCC2)c1)c1cccc(S(=O)(=O)N2CCCC2)c1 | 2.67% |  | 0.103 µM [falling, full curve, poor fit] |
| COc1ccc(S(=O)(=O)N2CCN(C(=O)c3c(C)nn(-c4ccccc4)c3Cl)CC2)cc1 | 10.8% |  |  |
| O=c1cnnc(Nc2ccccc2)[nH]1 | -34.3% | 0.731 µM [falling, full curve, poor fit] |  |
| CC1CN(C(=O)NCc2ccccc2)c2cc(Cl)ccc2O1 (stereo not drawn) | 35.5% | 0.731 µM [rising, full curve] |  |
| Cc1cc(SCC(=O)OCC(=O)NCC2CCCO2)c(C)cc1Br (stereo not drawn) | -24.8% |  | 0.651 µM [falling, full curve, poor fit] |
| CCc1cc(C(=O)N=Nc2c(O)[nH]c3ccc([N+](=O)[O-])cc23)c2ccccc2n1 | 6.33% |  |  |
| CCOc1ccc(/C=N/NC(=O)c2cc3c(OC)cc(OC)cc3[nH]2)cc1OC | 1.97% |  | 0.103 µM [rising, full curve, poor fit] |
| COc1ccc(C(=O)Nc2ccc(S(=O)(=O)Nc3cnc4ccccc4n3)cc2)cc1 | 15.2% |  |  |
| Cc1c(C2C(C#N)=C(N)N(c3cccc([N+](=O)[O-])c3)C3=C2C(=O)CCC3)cnn1C (stereo not drawn) | 15.8% |  | 29.1 µM [rising, single point] |
| Cc1ccc(C(=O)Oc2csc(=S)n2C(=O)c2ccc(C)cc2)cc1 | -13.5% |  | 0.92 µM [falling, full curve, poor fit] |
| COc1ccc(NC(=O)c2ccco2)cc1NC(=O)COc1ccccc1[N+](=O)[O-] | 11.1% |  | 14.6 µM [falling, single point] |
| CC(OC(=O)Cn1[nH]c(=O)c2ccccc2c1=O)C(=O)Nc1ccccc1[N+](=O)[O-] (stereo not drawn) |  |  | 29.1 µM [rising, single point] |
